Here are results for 34 targets from the supplement of paper PMC12819154, “High-throughput peptide-centric local stability assay extends protein–ligand identification to membrane proteins, tissues and bacteria” (Nature Structural & Molecular Biology, 2025).

Sequences of proteins named here, by UniProt entry; tags and fusion partners are left off. A change or cut given only in a name is not applied to a line headed by its entry.
UniProt P80644: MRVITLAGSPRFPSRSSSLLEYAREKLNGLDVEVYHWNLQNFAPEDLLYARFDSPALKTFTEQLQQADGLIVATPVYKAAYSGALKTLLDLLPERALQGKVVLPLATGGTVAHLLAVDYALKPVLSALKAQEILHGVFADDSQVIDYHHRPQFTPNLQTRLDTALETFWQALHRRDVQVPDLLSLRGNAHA
UniProt P77726: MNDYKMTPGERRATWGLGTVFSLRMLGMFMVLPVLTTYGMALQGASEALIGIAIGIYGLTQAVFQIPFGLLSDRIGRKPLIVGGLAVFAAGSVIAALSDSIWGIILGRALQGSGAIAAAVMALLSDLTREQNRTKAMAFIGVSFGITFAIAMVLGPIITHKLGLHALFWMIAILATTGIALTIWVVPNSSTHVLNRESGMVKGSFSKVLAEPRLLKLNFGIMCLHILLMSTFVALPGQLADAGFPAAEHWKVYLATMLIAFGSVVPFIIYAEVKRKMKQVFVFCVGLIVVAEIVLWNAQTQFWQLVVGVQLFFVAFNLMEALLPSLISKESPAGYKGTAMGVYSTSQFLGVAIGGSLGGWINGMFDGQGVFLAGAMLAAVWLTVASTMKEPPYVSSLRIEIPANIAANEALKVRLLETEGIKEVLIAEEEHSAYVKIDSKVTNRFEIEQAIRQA
UniProt P78061: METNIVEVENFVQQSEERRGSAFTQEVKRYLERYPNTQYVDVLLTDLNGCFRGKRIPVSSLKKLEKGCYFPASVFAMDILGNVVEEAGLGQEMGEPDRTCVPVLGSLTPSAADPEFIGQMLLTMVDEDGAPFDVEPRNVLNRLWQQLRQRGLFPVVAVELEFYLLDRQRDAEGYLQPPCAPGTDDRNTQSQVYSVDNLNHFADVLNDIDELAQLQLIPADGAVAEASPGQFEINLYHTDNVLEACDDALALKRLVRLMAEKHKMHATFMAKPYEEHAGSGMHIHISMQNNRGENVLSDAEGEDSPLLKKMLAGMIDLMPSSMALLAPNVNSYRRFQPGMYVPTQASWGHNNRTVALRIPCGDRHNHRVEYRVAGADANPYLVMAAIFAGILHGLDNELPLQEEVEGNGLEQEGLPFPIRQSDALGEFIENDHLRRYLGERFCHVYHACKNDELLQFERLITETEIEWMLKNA
UniProt P77756: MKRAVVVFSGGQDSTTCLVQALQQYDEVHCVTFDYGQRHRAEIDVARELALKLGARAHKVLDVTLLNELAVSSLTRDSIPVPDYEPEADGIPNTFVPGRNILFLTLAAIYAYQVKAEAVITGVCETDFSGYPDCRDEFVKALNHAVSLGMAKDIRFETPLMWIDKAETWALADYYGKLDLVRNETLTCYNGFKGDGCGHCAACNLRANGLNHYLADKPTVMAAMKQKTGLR
UniProt P77790: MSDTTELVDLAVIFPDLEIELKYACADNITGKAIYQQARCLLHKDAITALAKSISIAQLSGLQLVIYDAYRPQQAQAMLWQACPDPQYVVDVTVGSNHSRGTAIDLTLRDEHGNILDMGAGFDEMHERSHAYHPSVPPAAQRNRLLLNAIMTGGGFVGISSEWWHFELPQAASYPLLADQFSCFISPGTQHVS
UniProt Q47319: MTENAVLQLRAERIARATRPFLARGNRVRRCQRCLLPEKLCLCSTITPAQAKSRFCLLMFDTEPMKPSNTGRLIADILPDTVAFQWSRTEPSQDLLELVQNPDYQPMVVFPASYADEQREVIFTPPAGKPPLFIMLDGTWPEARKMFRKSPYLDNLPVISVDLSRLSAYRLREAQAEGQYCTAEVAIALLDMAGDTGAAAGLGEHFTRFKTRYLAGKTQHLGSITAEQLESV
UniProt P77775: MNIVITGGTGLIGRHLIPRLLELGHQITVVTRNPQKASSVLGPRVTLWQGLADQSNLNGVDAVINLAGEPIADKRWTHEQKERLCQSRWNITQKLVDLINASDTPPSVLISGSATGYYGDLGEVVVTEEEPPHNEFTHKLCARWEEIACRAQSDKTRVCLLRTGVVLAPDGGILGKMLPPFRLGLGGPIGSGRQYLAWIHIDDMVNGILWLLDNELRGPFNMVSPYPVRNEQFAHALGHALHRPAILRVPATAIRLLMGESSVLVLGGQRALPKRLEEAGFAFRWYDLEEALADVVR
UniProt Q46795: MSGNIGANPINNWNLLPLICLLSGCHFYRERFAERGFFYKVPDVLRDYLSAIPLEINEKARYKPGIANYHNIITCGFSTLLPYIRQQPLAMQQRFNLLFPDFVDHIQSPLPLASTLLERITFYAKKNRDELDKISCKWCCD
UniProt P77689: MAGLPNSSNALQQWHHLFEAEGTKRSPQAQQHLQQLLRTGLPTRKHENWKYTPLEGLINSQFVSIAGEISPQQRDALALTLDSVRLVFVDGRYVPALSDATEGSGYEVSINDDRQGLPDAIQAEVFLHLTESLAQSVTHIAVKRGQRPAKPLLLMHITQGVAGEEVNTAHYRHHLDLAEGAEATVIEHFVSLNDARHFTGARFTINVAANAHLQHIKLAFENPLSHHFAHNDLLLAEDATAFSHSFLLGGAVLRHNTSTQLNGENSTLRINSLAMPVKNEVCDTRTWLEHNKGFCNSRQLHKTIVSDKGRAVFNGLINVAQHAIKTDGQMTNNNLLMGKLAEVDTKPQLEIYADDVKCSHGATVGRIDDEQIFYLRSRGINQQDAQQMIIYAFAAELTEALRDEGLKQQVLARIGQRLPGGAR
UniProt Q47536: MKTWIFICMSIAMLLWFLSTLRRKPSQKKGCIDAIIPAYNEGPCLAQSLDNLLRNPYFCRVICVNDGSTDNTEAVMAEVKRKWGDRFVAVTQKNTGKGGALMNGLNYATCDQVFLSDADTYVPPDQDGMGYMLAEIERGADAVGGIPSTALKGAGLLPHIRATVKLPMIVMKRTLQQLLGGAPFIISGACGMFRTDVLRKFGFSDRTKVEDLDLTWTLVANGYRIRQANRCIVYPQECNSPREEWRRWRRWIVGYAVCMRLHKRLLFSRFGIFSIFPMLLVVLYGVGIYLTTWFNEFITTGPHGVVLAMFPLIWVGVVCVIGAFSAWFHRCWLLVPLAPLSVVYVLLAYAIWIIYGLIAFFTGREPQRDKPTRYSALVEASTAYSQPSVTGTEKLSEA
UniProt P77721: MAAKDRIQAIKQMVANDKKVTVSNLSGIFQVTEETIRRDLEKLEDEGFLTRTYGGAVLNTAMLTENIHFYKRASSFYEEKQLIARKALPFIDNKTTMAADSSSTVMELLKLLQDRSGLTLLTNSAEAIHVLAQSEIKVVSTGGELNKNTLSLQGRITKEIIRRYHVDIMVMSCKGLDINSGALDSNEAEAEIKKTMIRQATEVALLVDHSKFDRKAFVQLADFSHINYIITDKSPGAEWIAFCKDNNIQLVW
UniProt Q46836: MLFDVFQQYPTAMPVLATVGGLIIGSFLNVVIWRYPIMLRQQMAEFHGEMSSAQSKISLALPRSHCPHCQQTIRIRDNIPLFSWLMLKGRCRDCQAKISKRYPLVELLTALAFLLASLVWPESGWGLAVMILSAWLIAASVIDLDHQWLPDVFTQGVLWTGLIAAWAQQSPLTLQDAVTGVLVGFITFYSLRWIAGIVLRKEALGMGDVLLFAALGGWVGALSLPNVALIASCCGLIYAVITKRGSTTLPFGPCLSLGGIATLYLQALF
UniProt Q47129: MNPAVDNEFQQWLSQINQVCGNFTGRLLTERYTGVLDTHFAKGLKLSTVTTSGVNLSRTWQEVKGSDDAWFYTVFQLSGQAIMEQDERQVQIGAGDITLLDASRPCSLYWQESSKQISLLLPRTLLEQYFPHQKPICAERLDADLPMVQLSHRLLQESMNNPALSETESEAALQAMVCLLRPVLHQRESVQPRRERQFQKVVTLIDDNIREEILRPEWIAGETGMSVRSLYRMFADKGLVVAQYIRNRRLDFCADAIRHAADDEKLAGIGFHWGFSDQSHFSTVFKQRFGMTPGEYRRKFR
UniProt P77802: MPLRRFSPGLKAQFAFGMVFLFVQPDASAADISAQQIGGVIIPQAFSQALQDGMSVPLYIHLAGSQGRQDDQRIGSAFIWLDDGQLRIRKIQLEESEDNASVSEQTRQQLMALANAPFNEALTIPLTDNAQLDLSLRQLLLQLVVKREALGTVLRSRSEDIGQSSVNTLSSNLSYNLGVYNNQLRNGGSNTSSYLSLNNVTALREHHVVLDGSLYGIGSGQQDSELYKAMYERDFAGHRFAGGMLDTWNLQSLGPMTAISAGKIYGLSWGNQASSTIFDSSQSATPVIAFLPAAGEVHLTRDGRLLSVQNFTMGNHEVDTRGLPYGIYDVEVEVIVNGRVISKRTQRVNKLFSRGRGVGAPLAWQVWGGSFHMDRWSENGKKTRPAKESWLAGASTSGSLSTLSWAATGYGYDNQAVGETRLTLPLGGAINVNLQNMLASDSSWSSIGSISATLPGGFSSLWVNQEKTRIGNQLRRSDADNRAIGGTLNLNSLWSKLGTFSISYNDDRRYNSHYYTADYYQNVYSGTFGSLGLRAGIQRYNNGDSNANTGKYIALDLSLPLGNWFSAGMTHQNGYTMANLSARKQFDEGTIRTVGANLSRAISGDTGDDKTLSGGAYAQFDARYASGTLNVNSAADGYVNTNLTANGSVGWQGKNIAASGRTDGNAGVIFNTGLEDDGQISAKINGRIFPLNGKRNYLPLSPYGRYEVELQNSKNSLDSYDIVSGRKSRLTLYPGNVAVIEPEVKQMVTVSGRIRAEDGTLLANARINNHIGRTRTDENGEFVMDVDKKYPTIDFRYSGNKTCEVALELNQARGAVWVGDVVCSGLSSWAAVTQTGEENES
UniProt Q46908: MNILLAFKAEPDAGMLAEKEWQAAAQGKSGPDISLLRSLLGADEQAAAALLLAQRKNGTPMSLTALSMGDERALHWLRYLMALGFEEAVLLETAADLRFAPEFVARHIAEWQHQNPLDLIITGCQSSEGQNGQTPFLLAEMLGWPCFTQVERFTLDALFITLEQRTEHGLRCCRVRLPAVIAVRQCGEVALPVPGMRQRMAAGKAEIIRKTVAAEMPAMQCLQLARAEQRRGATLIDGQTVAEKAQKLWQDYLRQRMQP
UniProt P77804: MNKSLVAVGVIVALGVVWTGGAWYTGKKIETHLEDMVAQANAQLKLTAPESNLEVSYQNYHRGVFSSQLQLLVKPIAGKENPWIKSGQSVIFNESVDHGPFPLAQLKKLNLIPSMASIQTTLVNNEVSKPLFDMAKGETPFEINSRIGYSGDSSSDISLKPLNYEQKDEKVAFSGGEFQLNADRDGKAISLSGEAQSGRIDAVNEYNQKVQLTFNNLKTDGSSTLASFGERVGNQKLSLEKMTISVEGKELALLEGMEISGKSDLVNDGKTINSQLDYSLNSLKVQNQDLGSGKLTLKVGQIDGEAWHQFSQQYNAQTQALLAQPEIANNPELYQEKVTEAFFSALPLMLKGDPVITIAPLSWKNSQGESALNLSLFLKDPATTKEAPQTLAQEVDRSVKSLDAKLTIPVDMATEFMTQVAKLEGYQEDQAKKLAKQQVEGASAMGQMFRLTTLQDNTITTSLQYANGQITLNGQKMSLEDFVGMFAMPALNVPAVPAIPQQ
UniProt Q59385: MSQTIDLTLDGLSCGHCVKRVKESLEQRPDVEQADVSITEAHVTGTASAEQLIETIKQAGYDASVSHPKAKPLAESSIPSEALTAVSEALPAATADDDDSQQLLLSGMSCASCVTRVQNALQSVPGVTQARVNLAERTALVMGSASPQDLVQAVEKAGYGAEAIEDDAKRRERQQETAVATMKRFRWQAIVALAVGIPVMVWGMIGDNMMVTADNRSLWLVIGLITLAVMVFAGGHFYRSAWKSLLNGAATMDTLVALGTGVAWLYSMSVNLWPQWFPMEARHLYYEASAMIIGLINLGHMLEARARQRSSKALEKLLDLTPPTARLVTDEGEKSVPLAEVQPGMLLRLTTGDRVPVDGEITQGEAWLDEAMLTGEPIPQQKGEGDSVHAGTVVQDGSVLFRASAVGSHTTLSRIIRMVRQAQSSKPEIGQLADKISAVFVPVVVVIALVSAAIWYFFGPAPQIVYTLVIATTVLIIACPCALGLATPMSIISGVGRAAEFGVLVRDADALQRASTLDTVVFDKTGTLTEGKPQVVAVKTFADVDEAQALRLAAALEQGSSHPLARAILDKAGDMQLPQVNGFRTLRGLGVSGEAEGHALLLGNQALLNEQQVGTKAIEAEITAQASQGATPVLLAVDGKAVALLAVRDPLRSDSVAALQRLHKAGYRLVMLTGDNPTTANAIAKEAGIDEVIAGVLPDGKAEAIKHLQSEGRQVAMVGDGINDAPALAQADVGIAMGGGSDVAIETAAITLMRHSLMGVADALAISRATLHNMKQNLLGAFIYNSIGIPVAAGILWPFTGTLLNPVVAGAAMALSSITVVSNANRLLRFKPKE
UniProt Q46896: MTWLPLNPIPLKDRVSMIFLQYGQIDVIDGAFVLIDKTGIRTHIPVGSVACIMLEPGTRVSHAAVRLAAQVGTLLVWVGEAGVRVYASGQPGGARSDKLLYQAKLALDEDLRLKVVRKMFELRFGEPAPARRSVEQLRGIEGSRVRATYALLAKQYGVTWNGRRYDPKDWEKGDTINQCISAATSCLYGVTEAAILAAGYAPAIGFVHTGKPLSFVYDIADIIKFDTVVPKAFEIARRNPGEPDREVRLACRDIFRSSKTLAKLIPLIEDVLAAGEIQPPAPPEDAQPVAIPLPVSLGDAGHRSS

This is one part of the list. Most values lie at the level of the controls, where differences are scatter.

Compound in this test: CC1(C)S[C@@H]2[C@H](NC(=O)[C@H](N)c3ccccc3)C(=O)N2[C@H]1C(=O)O [ampicillin]
Kind of test: log2 fold change of tryptic peptide abundance, ligand vs vehicle (limited proteolysis) (log2 ratio); higher = more trypsin-susceptible (destabilized). As to conditions: ligand concentration: 10 uM; sample: E. coli crude lysate.
As for “UniProt Q6BF16 (peptide sequence: ALIGAGTVLKPEQVDALAR, peptide start residue: 60)”, the log2 fold change was found to be 0.372.

“UniProt P80644 (peptide sequence: VITLAGSPR, peptide start residue: 3)”: the log2 fold change was 0.158.

“UniProt P77737 (peptide sequence: QWFWQPPK, peptide start residue: 28)”: the log2 fold change is -0.346.

“UniProt P77726 (peptide sequence: EVLIAEEEHSAYVK, peptide start residue: 423)”: the log2 fold change was 0.255.

Consider “UniProt P78061 (peptide sequence: FCHVYHACKNDELLQFER, peptide start residue: 441)”, for which the log2 fold change came to 0.22.

“UniProt Q46856 (peptide sequence: RIYEAAR, peptide start residue: 381)”: the log2 fold change is -0.509.

As for “UniProt P77806 (peptide sequence: LAHHVAQGANQYAPMTGVQALR, peptide start residue: 52)”, the log2 fold change is 0.0665.

On to “UniProt Q46948 (peptide sequence: IIDLLVGR, peptide start residue: 168)”, for which the log2 fold change was -0.272.

As for “UniProt P77756 (peptide sequence: ANGLNHYLADKPTVMAAMK, peptide start residue: 207)”, the log2 fold change amounted to 0.099.

“UniProt P77790 (peptide sequence: YACADNITGK, peptide start residue: 23)”: the log2 fold change turned out to be 0.243.

With “UniProt Q47319 (peptide sequence: FKTRYLAGK, peptide start residue: 209)”, the log2 fold change is -0.154.

Take “UniProt P77775 (peptide sequence: LGLGGPIGSGR, peptide start residue: 183)”: the log2 fold change is -0.152.

As for “UniProt Q46855 (peptide sequence: LLYGETPFAR, peptide start residue: 52)”, the log2 fold change was -0.121.

In the case of “UniProt Q46795 (peptide sequence: KNRDELDK, peptide start residue: 126)”, the log2 fold change is -0.474.

For the target “UniProt Q47147 (peptide sequence: GGGTGPHKDGWGITFYEGK, peptide start residue: 26)”, the log2 fold change is -0.179.

Turning to “UniProt Q47690 (peptide sequence: VLVENPELIR, peptide start residue: 43)”, the log2 fold change was -0.161.

On to “UniProt P77689 (peptide sequence: INSLAMPVKNEVCDTR, peptide start residue: 270)”, for which the log2 fold change was -0.149.

Take “UniProt Q47536 (peptide sequence: WGDRFVAVTQK, peptide start residue: 83)”: the log2 fold change is -0.0493.

Consider “UniProt P77721 (peptide sequence: YHVDIMVMSCK, peptide start residue: 164)”, for which the log2 fold change is -0.532.

For “UniProt Q46829 (peptide sequence: GGKGPSICDVLTGGAHGVPR, peptide start residue: 30)”, the log2 fold change was -0.459.

Regarding “UniProt P77735 (peptide sequence: VGDLPEGLSR, peptide start residue: 93)”, the log2 fold change is -0.146.

In the case of “UniProt Q57083 (peptide sequence: EGEILLEHIQR, peptide start residue: 66)”, the log2 fold change came to 0.116.

Regarding “UniProt Q46836 (peptide sequence: SHCPHCQQTIR, peptide start residue: 64)”, the log2 fold change is -0.423.

Regarding “UniProt Q46814 (peptide sequence: GEHMIINFPIGSRPR, peptide start residue: 340)”, the log2 fold change was determined as 0.401.

With “UniProt Q47129 (peptide sequence: YTGVLDTHFAK, peptide start residue: 32)”, the log2 fold change was -0.227.

“UniProt P77802 (peptide sequence: QLLLQLVVKR, peptide start residue: 138)”: the log2 fold change was found to be 0.0761.

Regarding “UniProt Q47156 (peptide sequence: SVNITELR, peptide start residue: 9)”, the log2 fold change was -0.0969.

Take “UniProt Q46812 (peptide sequence: NVTAVQLHPAK, peptide start residue: 6)”: the log2 fold change came out at 0.783.

For “UniProt Q46863 (peptide sequence: TAIALSSEWKK, peptide start residue: 392)”, the log2 fold change worked out at 0.594.

For the target “UniProt Q46908 (peptide sequence: RGATLIDGQTVAEK, peptide start residue: 231)”, the log2 fold change was 0.228.

As for “UniProt P77804 (peptide sequence: LEGYQEDQAKK, peptide start residue: 423)”, the log2 fold change was -0.289.

Consider “UniProt Q59385 (peptide sequence: AAEFGVLVR, peptide start residue: 498)”, for which the log2 fold change was -0.381.

With “UniProt P77795 (peptide sequence: KPSQLSGGQR, peptide start residue: 131)”, the log2 fold change is -0.817.

On to “UniProt Q46896 (peptide sequence: VYASGQPGGAR, peptide start residue: 85)”, for which the log2 fold change was -0.245.
